Results from US20250241586A1, “Bioavailability and bioequivalence through intrinsic activity and KD measurements, in vivo, in humans” (priority 2024, published 2025).
Read-outs that look alike come from different tables or passages of the source.

By UniProt entry, the sequences of proteins in these tests, tags left out. Where a name states a change or a piece, a line headed by the entry shows the natural chain unless it says otherwise.
UniProt Q09428: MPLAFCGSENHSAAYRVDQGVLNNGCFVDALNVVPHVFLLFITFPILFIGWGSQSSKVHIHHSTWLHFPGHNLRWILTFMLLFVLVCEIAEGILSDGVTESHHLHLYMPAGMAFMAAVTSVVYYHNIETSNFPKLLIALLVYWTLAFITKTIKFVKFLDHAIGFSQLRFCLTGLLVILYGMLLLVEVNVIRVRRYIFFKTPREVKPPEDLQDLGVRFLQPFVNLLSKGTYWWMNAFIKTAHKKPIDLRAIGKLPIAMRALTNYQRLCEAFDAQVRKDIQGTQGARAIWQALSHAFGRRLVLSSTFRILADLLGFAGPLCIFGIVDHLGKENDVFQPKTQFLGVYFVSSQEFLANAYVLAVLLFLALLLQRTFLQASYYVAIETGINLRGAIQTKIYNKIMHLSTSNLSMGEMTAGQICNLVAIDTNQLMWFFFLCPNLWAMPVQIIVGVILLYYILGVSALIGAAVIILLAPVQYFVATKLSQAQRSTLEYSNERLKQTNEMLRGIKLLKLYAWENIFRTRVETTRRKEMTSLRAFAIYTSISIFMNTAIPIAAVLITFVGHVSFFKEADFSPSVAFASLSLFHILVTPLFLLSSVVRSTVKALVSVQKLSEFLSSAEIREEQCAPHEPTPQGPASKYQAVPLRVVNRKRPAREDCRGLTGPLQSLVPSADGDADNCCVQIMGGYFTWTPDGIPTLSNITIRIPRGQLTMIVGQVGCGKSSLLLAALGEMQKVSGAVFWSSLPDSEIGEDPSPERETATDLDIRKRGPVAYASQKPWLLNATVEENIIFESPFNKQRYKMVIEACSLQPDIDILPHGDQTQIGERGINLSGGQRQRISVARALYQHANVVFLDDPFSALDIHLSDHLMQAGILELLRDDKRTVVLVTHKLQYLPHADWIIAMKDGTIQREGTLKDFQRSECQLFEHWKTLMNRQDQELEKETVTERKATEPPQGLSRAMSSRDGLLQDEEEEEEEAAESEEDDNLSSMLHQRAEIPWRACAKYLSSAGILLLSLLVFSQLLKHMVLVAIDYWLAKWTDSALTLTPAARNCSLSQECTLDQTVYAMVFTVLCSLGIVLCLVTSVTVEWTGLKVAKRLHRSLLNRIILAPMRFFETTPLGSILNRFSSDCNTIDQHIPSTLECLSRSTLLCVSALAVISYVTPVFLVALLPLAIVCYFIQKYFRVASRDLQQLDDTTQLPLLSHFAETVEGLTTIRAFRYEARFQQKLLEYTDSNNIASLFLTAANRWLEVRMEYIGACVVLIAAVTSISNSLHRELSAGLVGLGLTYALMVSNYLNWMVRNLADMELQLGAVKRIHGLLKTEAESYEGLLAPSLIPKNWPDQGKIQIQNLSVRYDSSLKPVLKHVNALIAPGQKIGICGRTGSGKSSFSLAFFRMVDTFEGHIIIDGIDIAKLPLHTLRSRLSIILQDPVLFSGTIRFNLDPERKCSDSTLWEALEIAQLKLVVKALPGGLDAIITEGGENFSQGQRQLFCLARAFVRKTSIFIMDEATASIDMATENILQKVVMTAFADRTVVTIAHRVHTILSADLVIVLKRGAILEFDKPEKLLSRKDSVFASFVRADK

Target: K+ channels of the beta cells of the pancreas (Homo sapiens, UniProt Q09428)

Response AUC reduction (glipizide dose 20 Mcg/kg): 153 mg·h/dL
Response AUC reduction (glipizide dose 40 Mcg/kg): 732 mg·h/dL
Response AUC reduction (glipizide dose 65 Mcg/kg): 996 mg·h/dL
Compound: Cc1cnc(C(=O)NCCc2ccc(S(=O)(=O)NC(=O)NC3CCCCC3)cc2)cn1 [Glipizide, glipizide]
